Assay results: article doi:10.1101/2024.07.02.601518
Where two headings read alike, the source gives them in different places. No constants are given. Whether binding was seen depends on the method and setting. Binding seen in cells or lysates may run through a third protein. Here binding means that the protein was enriched with, or labelled near, the bait; the list need not be complete.

Chains of the proteins cited; added tags and fusions are not shown.
UniProt Q61221: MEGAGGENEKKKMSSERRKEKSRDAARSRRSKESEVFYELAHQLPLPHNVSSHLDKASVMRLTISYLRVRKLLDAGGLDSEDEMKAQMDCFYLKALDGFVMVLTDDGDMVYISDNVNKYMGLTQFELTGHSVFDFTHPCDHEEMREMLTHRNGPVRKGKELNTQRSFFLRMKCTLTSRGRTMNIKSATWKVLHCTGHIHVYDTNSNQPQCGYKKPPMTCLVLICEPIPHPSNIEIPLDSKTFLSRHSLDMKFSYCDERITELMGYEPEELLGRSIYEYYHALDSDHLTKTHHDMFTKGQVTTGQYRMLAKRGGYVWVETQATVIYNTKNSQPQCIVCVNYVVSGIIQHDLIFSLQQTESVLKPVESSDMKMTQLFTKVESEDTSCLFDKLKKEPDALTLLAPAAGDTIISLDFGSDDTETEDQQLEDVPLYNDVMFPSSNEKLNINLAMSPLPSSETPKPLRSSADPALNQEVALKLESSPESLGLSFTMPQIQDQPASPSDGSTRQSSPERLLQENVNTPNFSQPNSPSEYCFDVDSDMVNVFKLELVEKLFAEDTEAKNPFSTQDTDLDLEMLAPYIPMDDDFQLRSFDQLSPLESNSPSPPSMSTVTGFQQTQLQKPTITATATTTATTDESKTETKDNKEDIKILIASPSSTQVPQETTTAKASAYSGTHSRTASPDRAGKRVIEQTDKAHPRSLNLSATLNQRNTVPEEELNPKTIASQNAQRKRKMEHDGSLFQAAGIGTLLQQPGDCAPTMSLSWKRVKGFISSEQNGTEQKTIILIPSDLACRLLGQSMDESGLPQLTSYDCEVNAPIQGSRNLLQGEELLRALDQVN
UniProt Q16665: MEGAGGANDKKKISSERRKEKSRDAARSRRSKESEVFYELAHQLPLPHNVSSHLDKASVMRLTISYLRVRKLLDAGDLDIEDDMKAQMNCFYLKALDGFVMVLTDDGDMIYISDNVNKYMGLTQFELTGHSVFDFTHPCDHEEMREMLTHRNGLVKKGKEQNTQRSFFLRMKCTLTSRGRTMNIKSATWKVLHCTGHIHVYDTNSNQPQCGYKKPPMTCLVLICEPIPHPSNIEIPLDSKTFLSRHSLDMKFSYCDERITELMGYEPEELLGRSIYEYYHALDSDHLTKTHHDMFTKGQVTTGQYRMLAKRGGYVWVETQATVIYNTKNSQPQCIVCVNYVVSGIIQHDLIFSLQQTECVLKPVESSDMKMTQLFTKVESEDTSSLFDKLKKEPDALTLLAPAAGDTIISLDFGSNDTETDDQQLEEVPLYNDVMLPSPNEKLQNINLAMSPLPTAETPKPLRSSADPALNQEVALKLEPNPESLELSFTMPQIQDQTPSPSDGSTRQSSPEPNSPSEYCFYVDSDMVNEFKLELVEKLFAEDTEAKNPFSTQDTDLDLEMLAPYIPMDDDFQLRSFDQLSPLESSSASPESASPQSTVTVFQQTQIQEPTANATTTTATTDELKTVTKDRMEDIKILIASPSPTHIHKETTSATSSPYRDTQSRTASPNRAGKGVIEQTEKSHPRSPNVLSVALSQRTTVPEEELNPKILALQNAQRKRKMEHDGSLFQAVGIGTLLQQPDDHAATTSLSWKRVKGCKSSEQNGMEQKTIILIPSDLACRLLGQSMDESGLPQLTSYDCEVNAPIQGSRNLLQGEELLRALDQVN
UniProt Q8CFH6: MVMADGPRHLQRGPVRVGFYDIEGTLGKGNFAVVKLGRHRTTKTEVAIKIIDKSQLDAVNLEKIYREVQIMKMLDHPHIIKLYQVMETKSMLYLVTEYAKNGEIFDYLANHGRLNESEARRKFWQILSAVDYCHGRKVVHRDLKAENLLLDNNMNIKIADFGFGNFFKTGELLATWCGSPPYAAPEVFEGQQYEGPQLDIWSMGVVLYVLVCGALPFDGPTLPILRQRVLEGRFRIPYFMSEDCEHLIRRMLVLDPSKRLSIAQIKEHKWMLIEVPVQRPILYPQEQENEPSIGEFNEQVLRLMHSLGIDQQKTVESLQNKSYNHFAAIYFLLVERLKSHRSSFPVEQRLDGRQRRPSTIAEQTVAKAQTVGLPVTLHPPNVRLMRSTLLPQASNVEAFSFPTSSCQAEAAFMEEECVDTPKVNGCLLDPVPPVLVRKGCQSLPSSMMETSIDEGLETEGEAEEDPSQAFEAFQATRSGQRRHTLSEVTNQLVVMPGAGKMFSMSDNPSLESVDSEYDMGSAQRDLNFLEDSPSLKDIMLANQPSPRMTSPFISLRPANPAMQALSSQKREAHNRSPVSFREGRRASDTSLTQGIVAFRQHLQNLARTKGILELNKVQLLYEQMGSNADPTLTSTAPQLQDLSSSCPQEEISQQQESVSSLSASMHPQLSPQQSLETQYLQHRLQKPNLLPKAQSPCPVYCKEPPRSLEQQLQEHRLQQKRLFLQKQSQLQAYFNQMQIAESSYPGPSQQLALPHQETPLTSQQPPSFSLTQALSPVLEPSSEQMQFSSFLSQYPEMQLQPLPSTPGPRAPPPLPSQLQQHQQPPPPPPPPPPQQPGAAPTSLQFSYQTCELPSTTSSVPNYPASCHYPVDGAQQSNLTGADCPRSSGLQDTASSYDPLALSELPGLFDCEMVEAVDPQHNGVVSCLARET
UniProt Q80TA9: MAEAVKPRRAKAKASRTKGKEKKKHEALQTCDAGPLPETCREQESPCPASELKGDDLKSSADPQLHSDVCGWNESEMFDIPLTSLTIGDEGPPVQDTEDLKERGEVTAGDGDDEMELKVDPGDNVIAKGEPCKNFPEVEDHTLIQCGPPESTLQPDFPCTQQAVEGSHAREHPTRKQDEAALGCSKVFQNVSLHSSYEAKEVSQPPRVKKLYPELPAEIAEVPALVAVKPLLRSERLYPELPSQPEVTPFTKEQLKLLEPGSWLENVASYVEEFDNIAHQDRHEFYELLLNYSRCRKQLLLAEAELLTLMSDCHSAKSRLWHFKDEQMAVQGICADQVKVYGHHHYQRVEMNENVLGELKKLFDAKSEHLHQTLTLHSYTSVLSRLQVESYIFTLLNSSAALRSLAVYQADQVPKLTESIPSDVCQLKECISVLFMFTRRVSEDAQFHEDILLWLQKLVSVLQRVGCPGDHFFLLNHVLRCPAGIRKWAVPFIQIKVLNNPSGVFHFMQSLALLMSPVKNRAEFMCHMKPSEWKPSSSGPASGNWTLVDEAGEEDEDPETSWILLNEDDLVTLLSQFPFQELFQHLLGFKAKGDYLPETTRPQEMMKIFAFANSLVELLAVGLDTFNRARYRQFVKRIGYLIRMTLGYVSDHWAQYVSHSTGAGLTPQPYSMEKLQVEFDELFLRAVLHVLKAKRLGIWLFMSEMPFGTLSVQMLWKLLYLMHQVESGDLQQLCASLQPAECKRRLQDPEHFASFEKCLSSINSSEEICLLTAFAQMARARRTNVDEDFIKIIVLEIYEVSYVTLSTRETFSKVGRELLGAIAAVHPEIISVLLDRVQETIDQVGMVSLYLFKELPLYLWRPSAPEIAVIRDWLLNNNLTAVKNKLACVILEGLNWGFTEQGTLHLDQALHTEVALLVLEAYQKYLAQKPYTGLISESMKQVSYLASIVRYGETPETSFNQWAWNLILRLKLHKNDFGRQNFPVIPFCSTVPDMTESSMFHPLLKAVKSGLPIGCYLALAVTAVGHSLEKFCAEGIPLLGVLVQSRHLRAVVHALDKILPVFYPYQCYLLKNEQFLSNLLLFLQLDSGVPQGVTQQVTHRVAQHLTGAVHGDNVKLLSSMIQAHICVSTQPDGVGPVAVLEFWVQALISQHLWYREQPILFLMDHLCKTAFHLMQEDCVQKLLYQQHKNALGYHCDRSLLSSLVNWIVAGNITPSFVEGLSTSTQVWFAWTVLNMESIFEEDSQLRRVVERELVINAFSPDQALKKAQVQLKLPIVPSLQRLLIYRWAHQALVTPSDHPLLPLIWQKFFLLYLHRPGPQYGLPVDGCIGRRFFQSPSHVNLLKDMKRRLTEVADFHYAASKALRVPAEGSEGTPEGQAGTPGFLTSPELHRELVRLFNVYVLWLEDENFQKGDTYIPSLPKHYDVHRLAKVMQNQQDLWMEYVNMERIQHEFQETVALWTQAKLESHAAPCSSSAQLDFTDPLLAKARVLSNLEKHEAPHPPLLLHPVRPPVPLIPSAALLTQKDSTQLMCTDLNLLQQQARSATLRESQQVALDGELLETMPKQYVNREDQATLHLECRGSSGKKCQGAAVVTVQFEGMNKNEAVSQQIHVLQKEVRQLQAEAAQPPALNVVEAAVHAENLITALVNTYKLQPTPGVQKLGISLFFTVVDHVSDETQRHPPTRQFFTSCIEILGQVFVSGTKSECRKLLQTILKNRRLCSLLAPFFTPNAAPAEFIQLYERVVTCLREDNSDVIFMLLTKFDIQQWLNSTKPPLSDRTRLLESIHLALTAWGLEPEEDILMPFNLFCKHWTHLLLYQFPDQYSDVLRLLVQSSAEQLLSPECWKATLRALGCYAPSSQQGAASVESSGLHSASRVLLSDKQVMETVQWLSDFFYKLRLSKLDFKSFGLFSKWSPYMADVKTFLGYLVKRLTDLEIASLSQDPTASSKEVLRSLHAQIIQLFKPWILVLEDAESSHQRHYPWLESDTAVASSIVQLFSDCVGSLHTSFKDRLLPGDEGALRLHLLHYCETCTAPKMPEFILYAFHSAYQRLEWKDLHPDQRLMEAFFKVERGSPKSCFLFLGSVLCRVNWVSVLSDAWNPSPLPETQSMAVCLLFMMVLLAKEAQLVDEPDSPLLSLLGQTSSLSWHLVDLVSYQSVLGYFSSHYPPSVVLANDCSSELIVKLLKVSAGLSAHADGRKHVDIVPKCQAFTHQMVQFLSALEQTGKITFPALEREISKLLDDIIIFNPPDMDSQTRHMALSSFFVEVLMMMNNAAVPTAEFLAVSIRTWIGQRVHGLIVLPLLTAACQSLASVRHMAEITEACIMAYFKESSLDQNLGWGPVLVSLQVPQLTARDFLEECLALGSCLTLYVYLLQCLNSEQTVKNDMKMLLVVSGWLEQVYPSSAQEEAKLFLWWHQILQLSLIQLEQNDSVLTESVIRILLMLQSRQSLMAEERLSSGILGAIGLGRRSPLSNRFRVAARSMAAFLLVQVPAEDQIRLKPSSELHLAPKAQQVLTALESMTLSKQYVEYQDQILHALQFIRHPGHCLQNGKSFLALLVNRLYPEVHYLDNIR
UniProt Q60749: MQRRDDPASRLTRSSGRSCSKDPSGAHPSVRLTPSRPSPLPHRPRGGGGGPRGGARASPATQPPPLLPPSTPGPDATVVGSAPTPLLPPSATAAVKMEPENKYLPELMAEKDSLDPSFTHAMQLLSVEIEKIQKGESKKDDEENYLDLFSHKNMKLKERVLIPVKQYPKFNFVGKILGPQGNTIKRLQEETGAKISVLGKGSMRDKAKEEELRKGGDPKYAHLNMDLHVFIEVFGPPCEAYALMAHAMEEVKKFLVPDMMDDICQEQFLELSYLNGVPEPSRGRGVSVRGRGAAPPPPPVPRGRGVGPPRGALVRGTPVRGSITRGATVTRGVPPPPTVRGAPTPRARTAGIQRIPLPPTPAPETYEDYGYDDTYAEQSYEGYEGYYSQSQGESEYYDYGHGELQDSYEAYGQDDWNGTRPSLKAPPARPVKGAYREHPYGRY
UniProt Q921F2: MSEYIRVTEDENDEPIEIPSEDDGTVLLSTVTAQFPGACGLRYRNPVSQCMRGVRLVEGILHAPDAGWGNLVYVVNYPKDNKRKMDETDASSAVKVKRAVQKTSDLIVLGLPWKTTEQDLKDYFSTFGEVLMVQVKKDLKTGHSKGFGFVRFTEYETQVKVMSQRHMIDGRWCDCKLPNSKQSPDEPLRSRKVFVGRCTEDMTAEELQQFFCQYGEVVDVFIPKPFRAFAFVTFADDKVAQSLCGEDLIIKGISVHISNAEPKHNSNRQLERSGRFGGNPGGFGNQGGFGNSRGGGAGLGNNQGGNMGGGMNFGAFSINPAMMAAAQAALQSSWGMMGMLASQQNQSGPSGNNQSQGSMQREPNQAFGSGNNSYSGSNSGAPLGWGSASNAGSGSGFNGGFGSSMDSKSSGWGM

Tests used:
Test in all cases: affinity purification with mass spectrometry
[1] = biological target: Hypoxia-inducible factor 1-alpha (HIF-1α), mouse (mouse (endogenous in BaF3)) (UniProt Q61221)
[2] = biological target: Hypoxia-inducible factor 1-alpha (HIF-1α), mouse (mouse (endogenous in BaF3)) (UniProt Q61221); remark: listed apart in the source
[3] = biological target: Hypoxia-inducible factor 1-alpha (HIF-1α), human (human (endogenous in UT7/TPO)) (UniProt Q16665)

With “Znf638, mouse (from UniProt Q61464 1-1960)” the binding [1] was “binds”.

SIK2, mouse (from UniProt Q8CFH6 1-931) was tested, and the binding [1] was “binds”.

“Epg5, mouse (from UniProt Q80TA9 1-2572)” was tested, and the binding [1] was “binds”.

“KHDRBS1/Sam68, mouse (from UniProt Q60749 1-443)” was tested, and the binding [1] was “binds”.

“TDP-43, mouse (from UniProt Q921F2 1-414)” was tested, and the binding [1] was “binds”.

B1: Golga3, mouse (protein, UniProt P55937 1-1487)
chain: MDGASAKQDGLWESKSSSDVSSCPEASLETVGSLARLPDQQDTAQDASVEVNRGFKEEGSPDRSSQVAICQNGQIPDLQLSLDPTTSPVGPDASTGVDGFHDNLRNSQGTSAEGSVRKEALQSLRLSLPMQETQLCSTASSLPLEKEEQVRLQARKRLEEQLMQYRVKRHRERSSQPATKMKLFSTLDPELMLNPENLPRASTVAVTKEYSFLRTSVPRGPKVGSLGLLAHSKEKKNSKSSKIRSLADYRTEDPSDSGGLGSTADAVGSSLKQSRSSTSVVSEVSPSSETDNRVESASMTGDSVSEADGNESDSSSHSSLSARGACGVLGNVGMPGTAYMVDGQEISAEALGQFPSIKDVLQAAAAQHQDQNQEANGEVRSRRDSICSSVSMESSLAEPQDELLQILKDKRRLEGQVEALSLEASQALQEKAELQAQLAALSTRLQAQVEHSHSSQQKQDSLSSEVDTLKQSCWDLGRAMTDLQSMLEAKNASLASSNNDLQVAEEQYQRLMAKVEDMQRNILSKDNTVHDLRQQMTALQSQLQQVQLERTTLTSKLQASQAEITSLQHARQWYQQQLTLAQEARVRLQGEMAHIQVGQMTQAGLLEHLKLENVSLSHQLTETQHRSIKEKERIAVQLQSIEADMLDQEAAFVQIREAKTMVEEDLQRRLEEFEGEREQLQKVADAAASLEQQLEQVKLTLFQRDQQLAALQQEHLDVIKQLTSTQEALQAKGQSLDDLHTRYDELQARLEELQREADSREDAIHFLQNEKIVLEVALQSAKSDKEELDRGARRLEEDTEETSGLLEQLRQDLAVKSNQVEHLQQETATLRKQMQKVKEQFVQQKVMVEAYRRDATSKDQLINELKATKKRLDSEMKELRQELIKLQGEKKTVEVEHSRLQKDMSLVHQQMAELEGHLQSVQKERDEMEIHLQSLKFDKEQMIALTEANETLKKQIEELQQEAKKAITEQKQKMKRLGSDLTSAQKEMKTKHKAYENAVSILSRRLQEALASKEATDAELNQLRAQSTGGSSDPVLHEKIRALEVELQNVGQSKILLEKELQEVITMTSQELEESREKVLELEDELQESRGFRRKIKRLEESNKKLALELEHERGKLTGLGQSNAALREHNSILETALAKREADLVQLNLQVQAVLQRKEEEDRQMKQLVQALQVSLEKEKMEVNSLKEQMAAARIEAGHNRRHFKAATLELSEVKKELQAKEHLVQTLQAEVDELQIQDGKHSQEIAQFQTELAEARTQLQLLQKKLDEQMSQQPTGSQEMEDLKWELDQKEREIQSLKQQLDLTEQQGKKELEGTQQTLQTIKSELEMVQEDLSETQKDKFMLQAKVSELKNNMKTLLQQNQQLKLDLRRGAAKKKEPKGESNSSSPATPIKIPDCPVPASLLEELLRPPPAVSKEPLKNLNNCLQQLKQEMDSLQRQMEEHTITVHESLSSWAQVEAAPAEHAHPRGDTKLHNQNSVPRDGLGQ
With B1 the binding [2] was “binds”.

B2: GOLGA3, human (protein, UniProt Q08378 1-1498)
chain: MDGASAEQDGLQEDRSHSGPSSLPEAPLKPPGPLVPPDQQDKVQCAEVNRASTEGESPDGPGQGGLCQNGPTPPFPDPPSSLDPTTSPVGPDASPGVAGFHDNLRKSQGTSAEGSVRKEALQSLRLSLPMQETQLCSTDSPLPLEKEEQVRLQARKWLEEQLKQYRVKRQQERSSQPATKTRLFSTLDPELMLNPENLPRASTLAMTKEYSFLRTSVPRGPKVGSLGLPAHPREKKTSKSSKIRSLADYRTEDSNAGNSGGNVPAPDSTKGSLKQNRSSAASVVSEISLSPDTDDRLENTSLAGDSVSEVDGNDSDSSSYSSASTRGTYGILSKTVGTQDTPYMVNGQEIPADTLGQFPSIKDVLQAAAAEHQDQGQEVNGEVRSRRDSICSSVSLESSAAETQEEMLQVLKEKMRLEGQLEALSLEASQALKEKAELQAQLAALSTKLQAQVECSHSSQQRQDSLSSEVDTLKQSCWDLERAMTDLQNMLEAKNASLASSNNDLQVAEEQYQRLMAKVEDMQRSMLSKDNTVHDLRQQMTALQSQLQQVQLERTTLTSKLKASQAEISSLQSVRQWYQQQLALAQEARVRLQGEMAHIQVGQMTQAGLLEHLKLENVSLSQQLTETQHRSMKEKGRIAAQLQGIEADMLDQEAAFMQIQEAKTMVEEDLQRRLEEFEGERERLQRMADSAASLEQQLEQVKLTLLQRDQQLEALQQEHLDLMKQLTLTQEALQSREQSLDALQTHYDELQARLGELQGEAASREDTICLLQNEKIILEAALQAAKSGKEELDRGARRLEEGTEETSETLEKLREELAIKSGQVEHLQQETAALKKQMQKIKEQFLQQKVMVEAYRRDATSKDQLISELKATRKRLDSELKELRQELMQVHGEKRTAEAELSRLHREVAQVRQHMADLEGHLQSAQKERDEMETHLQSLQFDKEQMVAVTEANEALKKQIEELQQEARKAITEQKQKMRRLGSDLTSAQKEMKTKHKAYENAVGILSRRLQEALAAKEAADAELGQLRAQGGSSDSSLALHERIQALEAELQAVSHSKTLLEKELQEVIALTSQELEESREKVLELEDELQESRGFRKKIKRLEESNKKLALELEHEKGKLTGLGQSNAALREHNSILETALAKREADLVQLNLQVQAVLQRKEEEDRQMKHLVQALQASLEKEKEKVNSLKEQVAAAKVEAGHNRRHFKAASLELSEVKKELQAKEHLVQKLQAEADDLQIREGKHSQEIAQFQAELAEARAQLQLLQKQLDEQLSKQPVGNQEMENLKWEVDQKEREIQSLKQQLDLTEQQGRKELEGLQQLLQNVKSELEMAQEDLSMTQKDKFMLQAKVSELKNNMKTLLQQNQQLKLDLRRGAAKTRKEPKGEASSSNPATPIKIPDCPVPASLLEELLRPPPAVSKEPLKNLNSCLQQLKQEMDSLQRQMEEHALTVHESLSSWTPLEPATASPVPPGGHAGPRGDPQRHSQSRASKEGPGE
For B2, the binding [3] was “binds”.

B3: centrosomal protein Cep63, mouse (protein, UniProt Q3UPP8 1-700)
chain: MEALLEGIQNRGHSGGFLTSCEAELQELMKQIDIMVAHKKSEWEGQTHALETCLDIRDRELKALRSQLDMKHKEVGILHQQIEEHEKTKQEMAMEYKEELLKLQEELSRLKRSYEKLQKKQLREFRGNTKSFREDRSEIERLTGKIEEFRQKSLDWEKQRLIYQQQVSSLEAQRKALAEQSEIIQAQLANRKQKLESVELSSQSEIQHLNSKLERAKDTICANELEIERLNIRVNDLMGTNMTILQDHRQKEEKLRESEKLLEALQEEQKELKASLQSQETFILEAKMQEKLQTTLKAVGTQQSVERPLEDCQKERKYSSPGQGVLDNVLSQLDFSHSSEELLQAEVTRLEGSLESVSATCKQLSQELMEKYEELKRMEGHNNEYRTEIKKLKEQILQADQTYSSALEGMKMEISQLTRELHQRDITIASAKCSSSDMEKQLKAEMQKAEEKAVEHKEILSQLESLKLENHRLSETVMKLELGLHEAKEISLADLQENYIEALNKLVSENQQLQKDLMSTKSELEHATNMCKKKDGEIFNPAHSRAAGFKNAELKPIHGQHRHDGIKTEQYKTGHHSPRGQTLDSIDPVARGPSPLSSHISPGSSTVSLPSNFLFEAHSLPSVLDINDVNFSDSLSDCMNDQEEFVSSGSLPTSPLGSIATRFLEEEELRSHHILERLDAHIEELKRESEKTVRQFTALV
For B3, the binding [2] was “binds”.

B4: Fbl, mouse (protein, UniProt P35550 1-327)
chain: MKPGFSPRGGGFGGRGGFGDRGGRGGGRGGRGGFGGGRGGFGGGGRGRGGGGGGFRGRGGGGGRGGGFQSGGNRGRGGGRGGKRGNQSGKNVMVEPHRHEGVFICRGKEDALVTKNLVPGESVYGEKRVSISEGDDKIEYRAWNPFRSKLAAAILGGVDQIHIKPGAKVLYLGAASGTTVSHVSDIVGPDGLVYAVEFSHRSGRDLINLAKKRTNIIPVIEDARHPHKYRMLIAMVDVIFADVAQPDQTRIVALNAHTFLRNGGHFVISIKANCIDSTASAEAVFASEVKKMQQENMKPQEQLTLEPYERDHAVVVGVYRPPPKVKN
With B4 the binding [2] was “binds”.
